Data taken from patent US20080188461A1, “Compositions and methods for detecting, preventing and treating seizures and seizure related disorders” (Regents of the University of Michigan, priority 2007, published 2008).
At least one compound was matched to its structure with a doubt left.

System: seizures
Assay: Reduction in the number of seizures in individuals with multiple daily seizures treated with rapamycin
Assay type: in vivo, human
Details: individuals having seizure related disorders
Method: In particular, 14 individuals experiencing multiple daily seizures (4 males with diagnosed TSC, 5 females with diagnosed TSC, 1 person with diagnosed Lennox-Gastaut Syndrome, and 4 females with diagnosed Lennox-Gastaut Syndrome) between the ages of 3-18 were administered rapamycin in combination with an anti-epileptic drug regimen. […] Each individual received between up to 7 mg/day of rapamycin. […] The duration of treatment was between 31 and 32 months.

**Q.** Which “effect on number of seizures (in words)” value does the source give for `CO[C@H]1C[C@@H]2CC[C@@H](C)[C@@](O)(O2)C(=O)C(=O)N2CCCC[C@H]2C(=O)O[C@H]([C@H](C)C[C@@H]2CC[C@@H](O)[C@H](OC)C2)CC(=O)[C@H](C)/C=C(\C)[C@@H](O)[C@@H](OC)C(=O)[C@H](C)C[C@H](C)/C=C/C=C/C=C/1C` [rapamycin, Rapamycin] here?
**A.** Its value is “reduce the number of seizures”.
